According to the supplement of paper PMC6411743:
± gives the standard deviation of the averaged measurements. Only a part is listed here, and it is no random draw.

Chains of the proteins cited; added tags and fusions are not shown. Lines headed by an entry give the natural chain unless they say otherwise; changes in a name come on top.
UniProt Q9Y252: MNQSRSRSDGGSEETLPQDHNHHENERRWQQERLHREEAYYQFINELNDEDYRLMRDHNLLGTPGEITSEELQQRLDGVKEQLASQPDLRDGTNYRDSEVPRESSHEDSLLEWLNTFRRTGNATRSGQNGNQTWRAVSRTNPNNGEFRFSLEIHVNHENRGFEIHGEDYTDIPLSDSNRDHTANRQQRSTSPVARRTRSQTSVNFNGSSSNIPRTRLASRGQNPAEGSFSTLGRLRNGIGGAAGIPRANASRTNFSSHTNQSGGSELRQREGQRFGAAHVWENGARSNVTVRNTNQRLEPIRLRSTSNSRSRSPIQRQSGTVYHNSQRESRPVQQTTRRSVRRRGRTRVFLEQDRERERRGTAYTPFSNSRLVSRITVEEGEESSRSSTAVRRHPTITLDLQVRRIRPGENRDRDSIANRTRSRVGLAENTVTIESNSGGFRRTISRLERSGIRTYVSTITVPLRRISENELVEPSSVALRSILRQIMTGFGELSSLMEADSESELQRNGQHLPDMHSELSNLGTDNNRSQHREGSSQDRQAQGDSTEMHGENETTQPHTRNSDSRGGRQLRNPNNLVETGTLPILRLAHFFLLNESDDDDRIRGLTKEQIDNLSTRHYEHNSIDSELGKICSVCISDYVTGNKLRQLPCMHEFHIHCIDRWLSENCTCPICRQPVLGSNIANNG
UniProt Q9UPR3: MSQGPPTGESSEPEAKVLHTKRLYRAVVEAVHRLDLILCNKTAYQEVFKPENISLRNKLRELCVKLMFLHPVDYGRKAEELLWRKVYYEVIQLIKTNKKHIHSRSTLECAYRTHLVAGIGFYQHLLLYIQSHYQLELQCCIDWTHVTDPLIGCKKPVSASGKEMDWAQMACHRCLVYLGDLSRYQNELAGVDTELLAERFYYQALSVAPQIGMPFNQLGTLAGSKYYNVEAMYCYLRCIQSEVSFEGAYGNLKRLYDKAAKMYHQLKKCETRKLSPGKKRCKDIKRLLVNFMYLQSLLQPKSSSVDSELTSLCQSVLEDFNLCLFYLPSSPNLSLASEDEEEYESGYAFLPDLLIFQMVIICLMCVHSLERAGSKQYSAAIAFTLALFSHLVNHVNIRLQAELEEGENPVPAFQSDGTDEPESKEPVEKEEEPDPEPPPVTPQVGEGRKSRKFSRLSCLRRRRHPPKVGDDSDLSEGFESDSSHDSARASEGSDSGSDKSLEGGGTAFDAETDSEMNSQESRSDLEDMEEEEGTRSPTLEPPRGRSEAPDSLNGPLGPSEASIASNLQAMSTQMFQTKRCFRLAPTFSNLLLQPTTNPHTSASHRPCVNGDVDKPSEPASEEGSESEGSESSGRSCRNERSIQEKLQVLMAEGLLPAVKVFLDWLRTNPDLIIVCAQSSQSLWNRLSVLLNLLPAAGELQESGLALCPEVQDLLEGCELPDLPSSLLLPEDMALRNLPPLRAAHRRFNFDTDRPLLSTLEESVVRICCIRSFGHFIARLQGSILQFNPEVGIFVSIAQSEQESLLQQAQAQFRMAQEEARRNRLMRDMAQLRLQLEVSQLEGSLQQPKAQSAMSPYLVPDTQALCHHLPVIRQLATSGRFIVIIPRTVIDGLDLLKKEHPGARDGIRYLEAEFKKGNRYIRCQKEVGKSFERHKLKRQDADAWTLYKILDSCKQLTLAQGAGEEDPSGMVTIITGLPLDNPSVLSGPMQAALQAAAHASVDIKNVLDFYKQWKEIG
UniProt Q9UBD5: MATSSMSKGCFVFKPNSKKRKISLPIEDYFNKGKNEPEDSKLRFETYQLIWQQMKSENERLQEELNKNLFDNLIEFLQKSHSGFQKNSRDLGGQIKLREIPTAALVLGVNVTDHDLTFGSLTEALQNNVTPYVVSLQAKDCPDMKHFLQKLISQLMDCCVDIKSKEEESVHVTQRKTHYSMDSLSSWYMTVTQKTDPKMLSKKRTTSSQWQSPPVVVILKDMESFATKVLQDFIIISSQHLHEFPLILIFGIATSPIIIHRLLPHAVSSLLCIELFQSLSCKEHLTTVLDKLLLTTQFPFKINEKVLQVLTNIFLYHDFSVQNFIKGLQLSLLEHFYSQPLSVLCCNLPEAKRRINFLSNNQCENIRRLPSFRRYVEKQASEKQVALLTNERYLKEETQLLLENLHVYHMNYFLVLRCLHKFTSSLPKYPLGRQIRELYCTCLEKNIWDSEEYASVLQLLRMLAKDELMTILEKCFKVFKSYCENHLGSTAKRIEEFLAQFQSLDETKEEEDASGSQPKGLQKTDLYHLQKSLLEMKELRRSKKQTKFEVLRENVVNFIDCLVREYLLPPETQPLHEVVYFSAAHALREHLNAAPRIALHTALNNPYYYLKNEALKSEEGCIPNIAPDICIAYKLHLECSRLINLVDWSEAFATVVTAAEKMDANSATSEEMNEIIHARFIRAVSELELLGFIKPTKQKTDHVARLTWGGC
UniProt Q9UPP1: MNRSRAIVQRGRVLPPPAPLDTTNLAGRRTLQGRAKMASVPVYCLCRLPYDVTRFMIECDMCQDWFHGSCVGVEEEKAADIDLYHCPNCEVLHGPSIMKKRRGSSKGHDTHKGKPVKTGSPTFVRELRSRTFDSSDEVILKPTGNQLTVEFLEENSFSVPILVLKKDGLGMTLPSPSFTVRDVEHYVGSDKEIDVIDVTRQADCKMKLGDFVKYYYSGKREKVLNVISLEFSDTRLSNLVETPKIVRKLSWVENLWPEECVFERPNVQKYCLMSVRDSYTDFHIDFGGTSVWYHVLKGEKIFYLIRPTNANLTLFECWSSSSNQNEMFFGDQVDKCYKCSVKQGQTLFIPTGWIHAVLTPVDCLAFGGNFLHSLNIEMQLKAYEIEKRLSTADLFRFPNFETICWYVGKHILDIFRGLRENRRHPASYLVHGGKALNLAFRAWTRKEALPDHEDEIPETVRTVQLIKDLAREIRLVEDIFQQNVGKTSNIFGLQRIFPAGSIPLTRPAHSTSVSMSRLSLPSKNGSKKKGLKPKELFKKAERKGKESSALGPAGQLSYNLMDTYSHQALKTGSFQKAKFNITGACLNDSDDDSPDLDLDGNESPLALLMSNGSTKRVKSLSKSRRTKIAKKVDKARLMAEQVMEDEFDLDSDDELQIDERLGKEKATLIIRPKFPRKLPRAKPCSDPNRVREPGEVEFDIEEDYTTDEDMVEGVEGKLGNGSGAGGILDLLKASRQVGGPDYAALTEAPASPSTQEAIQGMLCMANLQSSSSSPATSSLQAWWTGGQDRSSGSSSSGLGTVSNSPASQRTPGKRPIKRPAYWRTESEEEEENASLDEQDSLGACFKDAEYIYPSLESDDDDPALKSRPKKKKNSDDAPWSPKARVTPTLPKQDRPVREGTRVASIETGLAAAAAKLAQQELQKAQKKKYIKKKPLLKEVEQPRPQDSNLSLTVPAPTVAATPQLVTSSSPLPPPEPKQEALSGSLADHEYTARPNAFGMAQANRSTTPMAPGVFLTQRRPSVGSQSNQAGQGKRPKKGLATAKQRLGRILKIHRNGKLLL
UniProt Q9UPT9: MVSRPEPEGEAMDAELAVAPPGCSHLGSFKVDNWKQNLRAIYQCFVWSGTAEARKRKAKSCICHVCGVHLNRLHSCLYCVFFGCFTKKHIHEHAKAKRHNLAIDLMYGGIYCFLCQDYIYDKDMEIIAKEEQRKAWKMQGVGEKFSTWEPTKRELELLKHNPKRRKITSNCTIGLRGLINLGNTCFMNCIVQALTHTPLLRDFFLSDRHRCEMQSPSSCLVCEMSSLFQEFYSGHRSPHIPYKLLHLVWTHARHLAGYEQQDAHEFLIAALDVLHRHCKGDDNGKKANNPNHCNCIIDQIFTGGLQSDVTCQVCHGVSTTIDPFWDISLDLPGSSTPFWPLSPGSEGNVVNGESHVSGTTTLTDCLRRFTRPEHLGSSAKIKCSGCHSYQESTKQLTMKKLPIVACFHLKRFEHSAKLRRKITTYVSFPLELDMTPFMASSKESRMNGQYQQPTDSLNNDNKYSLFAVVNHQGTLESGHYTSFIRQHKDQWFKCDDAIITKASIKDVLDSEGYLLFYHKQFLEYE
UniProt Q9ULW3: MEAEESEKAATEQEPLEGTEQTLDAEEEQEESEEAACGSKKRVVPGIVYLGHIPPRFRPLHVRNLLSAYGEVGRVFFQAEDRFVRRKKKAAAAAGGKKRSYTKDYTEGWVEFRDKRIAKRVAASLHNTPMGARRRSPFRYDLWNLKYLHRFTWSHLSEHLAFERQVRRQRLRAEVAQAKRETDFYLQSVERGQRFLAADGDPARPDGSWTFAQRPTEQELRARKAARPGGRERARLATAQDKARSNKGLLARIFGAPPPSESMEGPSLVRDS
UniProt Q9UII2: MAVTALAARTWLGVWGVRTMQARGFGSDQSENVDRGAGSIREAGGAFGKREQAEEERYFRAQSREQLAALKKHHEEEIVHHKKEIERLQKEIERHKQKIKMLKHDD
UniProt Q9UKM9: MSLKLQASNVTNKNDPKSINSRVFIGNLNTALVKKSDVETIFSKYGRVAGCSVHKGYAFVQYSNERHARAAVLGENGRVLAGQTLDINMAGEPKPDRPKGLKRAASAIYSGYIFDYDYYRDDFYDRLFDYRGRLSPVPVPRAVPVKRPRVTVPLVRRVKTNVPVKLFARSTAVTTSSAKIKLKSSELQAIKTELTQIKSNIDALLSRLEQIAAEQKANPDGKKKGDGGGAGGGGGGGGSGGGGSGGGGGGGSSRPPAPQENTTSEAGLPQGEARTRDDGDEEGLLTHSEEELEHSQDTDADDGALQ
UniProt Q9UPT8: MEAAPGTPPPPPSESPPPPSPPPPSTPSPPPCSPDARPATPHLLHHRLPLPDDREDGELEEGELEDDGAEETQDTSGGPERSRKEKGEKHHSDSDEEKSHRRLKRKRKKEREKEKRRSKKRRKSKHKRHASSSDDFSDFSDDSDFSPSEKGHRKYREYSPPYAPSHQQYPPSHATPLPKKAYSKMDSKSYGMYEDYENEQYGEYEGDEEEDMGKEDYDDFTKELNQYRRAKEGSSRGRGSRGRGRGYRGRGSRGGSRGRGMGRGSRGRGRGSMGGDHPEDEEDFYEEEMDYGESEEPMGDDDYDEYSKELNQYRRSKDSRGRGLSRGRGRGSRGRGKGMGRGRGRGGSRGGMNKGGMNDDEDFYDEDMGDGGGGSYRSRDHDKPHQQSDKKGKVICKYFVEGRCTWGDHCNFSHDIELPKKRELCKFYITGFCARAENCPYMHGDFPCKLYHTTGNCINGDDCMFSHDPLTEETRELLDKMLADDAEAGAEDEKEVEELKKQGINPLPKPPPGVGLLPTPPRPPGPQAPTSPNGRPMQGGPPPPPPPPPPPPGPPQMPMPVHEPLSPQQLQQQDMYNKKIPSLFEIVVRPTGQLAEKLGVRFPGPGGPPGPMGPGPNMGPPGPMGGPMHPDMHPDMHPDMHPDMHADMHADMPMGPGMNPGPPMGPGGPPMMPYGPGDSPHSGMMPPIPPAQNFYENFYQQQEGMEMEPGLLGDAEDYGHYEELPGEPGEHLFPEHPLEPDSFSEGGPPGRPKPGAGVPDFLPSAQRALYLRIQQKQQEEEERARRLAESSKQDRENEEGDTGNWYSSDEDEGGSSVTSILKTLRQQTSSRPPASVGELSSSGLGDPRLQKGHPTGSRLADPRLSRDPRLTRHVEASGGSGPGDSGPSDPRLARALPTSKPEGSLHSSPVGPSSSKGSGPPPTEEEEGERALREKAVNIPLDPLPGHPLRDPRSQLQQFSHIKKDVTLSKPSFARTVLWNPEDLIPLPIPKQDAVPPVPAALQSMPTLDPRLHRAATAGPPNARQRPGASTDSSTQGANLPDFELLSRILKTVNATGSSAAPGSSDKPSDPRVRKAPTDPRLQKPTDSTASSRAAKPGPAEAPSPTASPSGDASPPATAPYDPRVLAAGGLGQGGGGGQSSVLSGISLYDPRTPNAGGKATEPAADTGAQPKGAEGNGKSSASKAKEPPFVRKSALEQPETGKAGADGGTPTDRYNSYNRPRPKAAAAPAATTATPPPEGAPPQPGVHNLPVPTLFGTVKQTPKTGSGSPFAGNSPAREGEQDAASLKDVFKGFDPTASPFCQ
UniProt Q9UHA4, whole entry: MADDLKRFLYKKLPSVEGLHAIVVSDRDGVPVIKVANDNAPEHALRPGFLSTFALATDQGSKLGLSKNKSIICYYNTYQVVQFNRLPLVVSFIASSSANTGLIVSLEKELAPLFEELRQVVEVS
UniProt Q9UJU6: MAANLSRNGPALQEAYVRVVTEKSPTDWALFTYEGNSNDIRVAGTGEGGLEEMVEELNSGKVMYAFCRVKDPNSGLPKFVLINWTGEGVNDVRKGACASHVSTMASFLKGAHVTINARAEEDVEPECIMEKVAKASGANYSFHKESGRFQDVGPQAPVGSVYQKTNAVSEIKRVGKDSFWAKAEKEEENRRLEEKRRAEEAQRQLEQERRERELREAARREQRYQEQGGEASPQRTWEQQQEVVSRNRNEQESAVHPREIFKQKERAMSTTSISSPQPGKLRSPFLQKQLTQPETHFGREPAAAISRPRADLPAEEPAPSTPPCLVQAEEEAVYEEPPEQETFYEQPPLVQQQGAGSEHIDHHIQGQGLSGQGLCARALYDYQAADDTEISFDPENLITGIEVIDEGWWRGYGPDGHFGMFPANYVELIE

Compound: Nc1ncnc2c1ncn2[C@@H]1O[C@H](COP(=O)(O)OP(=O)(O)OP(=O)(O)O)[C@@H](O)[C@H]1O [adenosine triphosphate]
Assay: NP40-soluble protein abundance relative to vehicle (solubility fold change) (ratio); higher = more soluble protein in presence of ATP
How it was run: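 In three independent experiments, Jurkat crude lysate made by Dounce homogenisation was treated for 10 min at room temperature and then 3 min at 37 °C with eight concentrations ranging from 0.1 to 10 mM. It was then solubilised with 0.8% NP40 plus benzonase for 60 min at 4 °C and ultracentrifuged. The supernatant was TMT-labelled for LC-MS/MS, and each value is the fold change against the detergent-processed vehicle for the same replicate, using vsn-normalised intensities.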

Target	NP40-soluble protein abundance (concentration: 1mM)	NP40-soluble protein abundance (concentration: 2mM)	NP40-soluble protein abundance (concentration: 4mM)	NP40-soluble protein abundance (concentration: 6mM)	NP40-soluble protein abundance (concentration: 8mM)	NP40-soluble protein abundance (concentration: 10mM)
UniProt Q9Y252	1.05 ± 0.073	1.06 ± 0.047	1.14 ± 0.038	1.13 ± 0.17	1.11 ± 0.063	1.16 ± 0.055
UniProt Q9UK41 and related entries	0.987 ± 0.032	0.946 ± 0.0059	0.954 ± 0.0084	0.958 ± 0.0072	1 ± 0.043	0.865 ± 0.09
RBM27 (UniProt Q9P2N5)	1.43 ± 0.069	1.49 ± 0.039	1.49 ± 0.024	1.6 ± 0.079	1.525 ± 0.0033	1.56 ± 0.023
SMG5 (UniProt Q9UPR3)	0.956 ± 0.028	0.9436 ± 0.0076	1 ± 0.017	1.01 ± 0.042	0.961 ± 0.047	0.973 ± 0.13
UniProt Q9UDT6-2	1.08 ± 0.092	1.12 ± 0.13	1.15 ± 0.1	1.21 ± 0.14	1.19 ± 0.15	1.24 ± 0.14
UniProt Q9UBD5 and related entries	1.06 ± 0.062	1.03 ± 0.024	1.06 ± 0.039	1.05 ± 0.026	1.09 ± 0.058	1.08 ± 0.061
NOTCH3 (UniProt Q9UM47)	0.974 ± 0.061	1 ± 0.078	0.869 ± 0.086	0.955 ± 0.024	0.864 ± 0.045	1 ± 0.21
UniProt Q9P2K3-3	0.981 ± 0.055	0.968 ± 0.043	0.968 ± 0.048	1.04 ± 0.09	0.97 ± 0.053	0.996 ± 0.059
TTF2 (UniProt Q9UNY4)	1.01 ± 0.035	1.01 ± 0.026	1.05 ± 0.021	1.06 ± 0.022	0.987 ± 0.011	1.01 ± 0.026
CTTNBP2NL (UniProt Q9P2B4)	0.966 ± 0.028	0.985 ± 0.043	1.02 ± 0.057	0.996 ± 0.084	0.958 ± 0.051	0.978 ± 0.047
UniProt Q9P2A4 and related entries	1.05 ± 0.053	1.02 ± 0.052	1 ± 0.025	1.03 ± 0.027	1.022 ± 0.0094	1.02 ± 0.018
UniProt Q9UPP1 and related entries	1.05 ± 0.028	1.06 ± 0.026	1.07 ± 0.038	1.07 ± 0.044	1.11 ± 0.012	1.15 ± 0.033
SARDH (UniProt Q9UL12)	1.01 ± 0.071	1.03 ± 0.073	1.04 ± 0.067	1.01 ± 0.12	1.06 ± 0.071	1.07 ± 0.1
UniProt Q9UPT9 and related entries	0.963 ± 0.09	0.965 ± 0.068	0.918 ± 0.06	0.951 ± 0.071	0.976 ± 0.047	0.971 ± 0.025
UniProt Q9UHQ4 and related entries	0.934 ± 0.06	0.961 ± 0.039	0.946 ± 0.063	1.02 ± 0.022	0.917 ± 0.047	0.954 ± 0.044
UniProt Q9UL18 and related entries	1.01 ± 0.14	1.07 ± 0.095	1.08 ± 0.11	1.08 ± 0.063	1.07 ± 0.093	1.05 ± 0.061
UniProt Q9Y259 and related entries	1.02 ± 0.073	1.06 ± 0.069	1.036 ± 0.0097	1.01 ± 0.059	1.02 ± 0.056	1.03 ± 0.051
SRP68 (UniProt Q9UHB9)	0.991 ± 0.025	1.009 ± 0.0096	1.03 ± 0.022	1.07 ± 0.018	1.08 ± 0.02	1.08 ± 0.023

As entered above.
UniProt Q9UBD5 and related entries | NP40-soluble protein abundance (concentration: 4mM): 1.06 ± 0.039
SMG5 (UniProt Q9UPR3) | NP40-soluble protein abundance (concentration: 4mM): 1 ± 0.017

More entries follow.

Target	NP40-soluble protein abundance (concentration: 1mM)	NP40-soluble protein abundance (concentration: 2mM)	NP40-soluble protein abundance (concentration: 4mM)	NP40-soluble protein abundance (concentration: 6mM)	NP40-soluble protein abundance (concentration: 8mM)	NP40-soluble protein abundance (concentration: 10mM)
ABT1 (UniProt Q9ULW3)	0.997 ± 0.043	1.01 ± 0.095	1.02 ± 0.057	0.989 ± 0.055	0.982 ± 0.061	0.979 ± 0.07
UniProt Q9UII2	1.01 ± 0.27	0.993 ± 0.21	0.909 ± 0.13	0.96 ± 0.14	0.889 ± 0.025	0.827 ± 0.14
CPSF2 (UniProt Q9P2I0)	1.08 ± 0.03	1.141 ± 0.011	1.19 ± 0.034	1.24 ± 0.014	1.27 ± 0.029	1.292 ± 0.011
AP4E1 (UniProt Q9UPM8)	1.11 ± 0.028	1.07 ± 0.031	1.11 ± 0.07	1.11 ± 0.046	1.14 ± 0.07	1.18 ± 0.072
TRAPPC4 (UniProt Q9Y296)	1.01 ± 0.089	0.976 ± 0.076	0.978 ± 0.055	0.904 ± 0.07	0.951 ± 0.039	0.966 ± 0.048
UniProt Q9UKM9 and related entries	1.05 ± 0.064	1.05 ± 0.1	1.02 ± 0.11	1.05 ± 0.15	1.01 ± 0.14	1.03 ± 0.11
UniProt Q9UBH6 and related entries	0.987 ± 0.028	0.98 ± 0.14	0.952 ± 0.12	0.933 ± 0.15	0.995 ± 0.14	1.01 ± 0.16
DUSP12 (UniProt Q9UNI6)	1.02 ± 0.1	1.02 ± 0.1	1.06 ± 0.042	1.05 ± 0.13	1.07 ± 0.077	1.07 ± 0.064
UniProt Q9P2D3 and related entries	0.963 ± 0.021	0.975 ± 0.037	0.99 ± 0.017	0.939 ± 0.061	1.01 ± 0.032	0.996 ± 0.054
ZC3H4 (UniProt Q9UPT8)	0.998 ± 0.065	1.02 ± 0.026	1.03 ± 0.03	1.07 ± 0.032	1.017 ± 0.0029	1.029 ± 0.0049
APPL1 (UniProt Q9UKG1)	1.05 ± 0.058	1.03 ± 0.055	1.03 ± 0.064	0.973 ± 0.078	1.03 ± 0.04	1.01 ± 0.076
UniProt Q9UHA4	1.02 ± 0.095	0.985 ± 0.097	1.02 ± 0.084	0.954 ± 0.09	0.985 ± 0.11	0.916 ± 0.079
NUDC (UniProt Q9Y266)	0.921 ± 0.05	0.921 ± 0.019	0.886 ± 0.022	0.957 ± 0.024	0.889 ± 0.0069	0.8887 ± 0.0075
COPS3 (UniProt Q9UNS2)	0.907 ± 0.0095	0.929 ± 0.023	0.896 ± 0.045	0.901 ± 0.036	0.89 ± 0.052	0.902 ± 0.01
UniProt Q9ULL5-3	0.951 ± 0.05	0.987 ± 0.1	1.06 ± 0.088	1.01 ± 0.068	1.01 ± 0.04	1.04 ± 0.086
FARSA (UniProt Q9Y285)	0.985 ± 0.07	0.966 ± 0.042	0.947 ± 0.027	0.899 ± 0.096	0.94 ± 0.012	0.968 ± 0.038
UniProt Q9UJU6 and related entries	0.954 ± 0.015	0.937 ± 0.018	0.9307 ± 0.0081	0.949 ± 0.038	0.914 ± 0.033	0.936 ± 0.033
